{
  "source": "patent US5502032",
  "about": "(dated 1996)",
  "experiment": "solution-phase peptide synthesis; DEPCN/DIPEA; Boc-Val-N-carboxyanhydride",
  "settings": "whole synthesis, scale 2 mmol",
  "data": [
    {"substance": "N,N-dimethylvaline-Val-N(CH3)-CH[CH(CH3)2]-CH(OCH3)-CH2-CO-phenylalaninamide", "values": [
      {"measurement": "isolated mass", "result": 0.46, "unit": "g"}
    ]}
  ]
}
